Measured values published in the supplement of paper PMC10849652.
This is one part of the list. Residues, ends and D or L forms follow the SMILES beside them. *: point of attachment. Cbz = O=C(OCc1ccccc1)*

The chains behind the UniProt entries cited, without tags or fusion partners. Where a name states a change or a piece, a line headed by the entry shows the natural chain unless it says otherwise.
UniProt P08238, whole entry, looked up: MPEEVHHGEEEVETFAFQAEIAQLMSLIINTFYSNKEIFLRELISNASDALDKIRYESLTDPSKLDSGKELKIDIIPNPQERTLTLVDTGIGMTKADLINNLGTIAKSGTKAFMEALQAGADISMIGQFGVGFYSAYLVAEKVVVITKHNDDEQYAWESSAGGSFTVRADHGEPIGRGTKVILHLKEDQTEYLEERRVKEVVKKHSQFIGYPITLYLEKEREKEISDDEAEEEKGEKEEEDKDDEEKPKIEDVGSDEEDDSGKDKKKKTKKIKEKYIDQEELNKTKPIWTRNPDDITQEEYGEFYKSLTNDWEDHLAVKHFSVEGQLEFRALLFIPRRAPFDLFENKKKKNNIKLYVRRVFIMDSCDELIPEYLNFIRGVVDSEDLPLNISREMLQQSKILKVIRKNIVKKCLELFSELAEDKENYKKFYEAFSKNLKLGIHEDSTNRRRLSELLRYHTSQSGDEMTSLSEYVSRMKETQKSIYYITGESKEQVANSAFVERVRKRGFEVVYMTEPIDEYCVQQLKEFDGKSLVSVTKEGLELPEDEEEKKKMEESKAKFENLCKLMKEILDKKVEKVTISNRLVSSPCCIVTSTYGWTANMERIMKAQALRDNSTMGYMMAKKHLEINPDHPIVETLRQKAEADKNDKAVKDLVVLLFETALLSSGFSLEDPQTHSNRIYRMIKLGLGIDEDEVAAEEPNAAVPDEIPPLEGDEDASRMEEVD
UniProt Q9NQE9: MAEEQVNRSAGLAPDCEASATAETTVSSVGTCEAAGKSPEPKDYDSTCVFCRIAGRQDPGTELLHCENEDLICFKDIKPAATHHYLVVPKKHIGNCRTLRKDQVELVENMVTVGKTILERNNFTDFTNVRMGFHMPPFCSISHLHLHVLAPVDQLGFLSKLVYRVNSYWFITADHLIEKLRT
UniProt P41252: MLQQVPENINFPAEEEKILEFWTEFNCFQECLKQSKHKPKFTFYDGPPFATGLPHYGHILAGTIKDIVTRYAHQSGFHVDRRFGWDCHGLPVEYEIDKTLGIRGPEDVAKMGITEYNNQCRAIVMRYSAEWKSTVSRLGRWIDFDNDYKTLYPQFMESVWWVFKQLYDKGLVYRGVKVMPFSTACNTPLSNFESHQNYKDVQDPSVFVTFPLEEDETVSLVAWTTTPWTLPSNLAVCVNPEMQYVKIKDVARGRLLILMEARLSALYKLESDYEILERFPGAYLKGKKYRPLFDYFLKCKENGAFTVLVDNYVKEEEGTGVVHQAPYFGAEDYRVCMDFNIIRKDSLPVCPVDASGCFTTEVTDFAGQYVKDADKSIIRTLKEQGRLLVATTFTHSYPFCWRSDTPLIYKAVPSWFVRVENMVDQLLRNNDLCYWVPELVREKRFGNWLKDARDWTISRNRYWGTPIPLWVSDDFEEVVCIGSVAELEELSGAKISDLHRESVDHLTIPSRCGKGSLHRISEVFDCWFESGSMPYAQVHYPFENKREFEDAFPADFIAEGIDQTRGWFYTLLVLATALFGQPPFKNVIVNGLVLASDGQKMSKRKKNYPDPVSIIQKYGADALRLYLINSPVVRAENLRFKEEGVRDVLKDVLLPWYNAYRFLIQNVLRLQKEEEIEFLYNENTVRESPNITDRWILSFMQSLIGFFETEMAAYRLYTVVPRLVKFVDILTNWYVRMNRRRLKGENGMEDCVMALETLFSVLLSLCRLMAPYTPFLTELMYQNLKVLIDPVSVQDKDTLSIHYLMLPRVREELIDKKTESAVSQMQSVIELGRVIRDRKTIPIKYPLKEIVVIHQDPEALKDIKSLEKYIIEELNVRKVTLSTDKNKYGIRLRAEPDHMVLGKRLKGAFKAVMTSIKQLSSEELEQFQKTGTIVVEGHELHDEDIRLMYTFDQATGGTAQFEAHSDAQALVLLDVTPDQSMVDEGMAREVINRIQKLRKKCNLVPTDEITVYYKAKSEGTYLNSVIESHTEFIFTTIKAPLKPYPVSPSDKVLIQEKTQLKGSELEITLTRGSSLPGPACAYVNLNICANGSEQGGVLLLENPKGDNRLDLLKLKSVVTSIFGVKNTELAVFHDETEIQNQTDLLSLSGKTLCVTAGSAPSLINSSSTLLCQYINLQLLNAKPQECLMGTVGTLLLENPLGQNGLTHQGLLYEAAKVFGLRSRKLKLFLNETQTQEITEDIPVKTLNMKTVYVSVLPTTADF
UniProt Q7Z6Z7, whole entry, looked up: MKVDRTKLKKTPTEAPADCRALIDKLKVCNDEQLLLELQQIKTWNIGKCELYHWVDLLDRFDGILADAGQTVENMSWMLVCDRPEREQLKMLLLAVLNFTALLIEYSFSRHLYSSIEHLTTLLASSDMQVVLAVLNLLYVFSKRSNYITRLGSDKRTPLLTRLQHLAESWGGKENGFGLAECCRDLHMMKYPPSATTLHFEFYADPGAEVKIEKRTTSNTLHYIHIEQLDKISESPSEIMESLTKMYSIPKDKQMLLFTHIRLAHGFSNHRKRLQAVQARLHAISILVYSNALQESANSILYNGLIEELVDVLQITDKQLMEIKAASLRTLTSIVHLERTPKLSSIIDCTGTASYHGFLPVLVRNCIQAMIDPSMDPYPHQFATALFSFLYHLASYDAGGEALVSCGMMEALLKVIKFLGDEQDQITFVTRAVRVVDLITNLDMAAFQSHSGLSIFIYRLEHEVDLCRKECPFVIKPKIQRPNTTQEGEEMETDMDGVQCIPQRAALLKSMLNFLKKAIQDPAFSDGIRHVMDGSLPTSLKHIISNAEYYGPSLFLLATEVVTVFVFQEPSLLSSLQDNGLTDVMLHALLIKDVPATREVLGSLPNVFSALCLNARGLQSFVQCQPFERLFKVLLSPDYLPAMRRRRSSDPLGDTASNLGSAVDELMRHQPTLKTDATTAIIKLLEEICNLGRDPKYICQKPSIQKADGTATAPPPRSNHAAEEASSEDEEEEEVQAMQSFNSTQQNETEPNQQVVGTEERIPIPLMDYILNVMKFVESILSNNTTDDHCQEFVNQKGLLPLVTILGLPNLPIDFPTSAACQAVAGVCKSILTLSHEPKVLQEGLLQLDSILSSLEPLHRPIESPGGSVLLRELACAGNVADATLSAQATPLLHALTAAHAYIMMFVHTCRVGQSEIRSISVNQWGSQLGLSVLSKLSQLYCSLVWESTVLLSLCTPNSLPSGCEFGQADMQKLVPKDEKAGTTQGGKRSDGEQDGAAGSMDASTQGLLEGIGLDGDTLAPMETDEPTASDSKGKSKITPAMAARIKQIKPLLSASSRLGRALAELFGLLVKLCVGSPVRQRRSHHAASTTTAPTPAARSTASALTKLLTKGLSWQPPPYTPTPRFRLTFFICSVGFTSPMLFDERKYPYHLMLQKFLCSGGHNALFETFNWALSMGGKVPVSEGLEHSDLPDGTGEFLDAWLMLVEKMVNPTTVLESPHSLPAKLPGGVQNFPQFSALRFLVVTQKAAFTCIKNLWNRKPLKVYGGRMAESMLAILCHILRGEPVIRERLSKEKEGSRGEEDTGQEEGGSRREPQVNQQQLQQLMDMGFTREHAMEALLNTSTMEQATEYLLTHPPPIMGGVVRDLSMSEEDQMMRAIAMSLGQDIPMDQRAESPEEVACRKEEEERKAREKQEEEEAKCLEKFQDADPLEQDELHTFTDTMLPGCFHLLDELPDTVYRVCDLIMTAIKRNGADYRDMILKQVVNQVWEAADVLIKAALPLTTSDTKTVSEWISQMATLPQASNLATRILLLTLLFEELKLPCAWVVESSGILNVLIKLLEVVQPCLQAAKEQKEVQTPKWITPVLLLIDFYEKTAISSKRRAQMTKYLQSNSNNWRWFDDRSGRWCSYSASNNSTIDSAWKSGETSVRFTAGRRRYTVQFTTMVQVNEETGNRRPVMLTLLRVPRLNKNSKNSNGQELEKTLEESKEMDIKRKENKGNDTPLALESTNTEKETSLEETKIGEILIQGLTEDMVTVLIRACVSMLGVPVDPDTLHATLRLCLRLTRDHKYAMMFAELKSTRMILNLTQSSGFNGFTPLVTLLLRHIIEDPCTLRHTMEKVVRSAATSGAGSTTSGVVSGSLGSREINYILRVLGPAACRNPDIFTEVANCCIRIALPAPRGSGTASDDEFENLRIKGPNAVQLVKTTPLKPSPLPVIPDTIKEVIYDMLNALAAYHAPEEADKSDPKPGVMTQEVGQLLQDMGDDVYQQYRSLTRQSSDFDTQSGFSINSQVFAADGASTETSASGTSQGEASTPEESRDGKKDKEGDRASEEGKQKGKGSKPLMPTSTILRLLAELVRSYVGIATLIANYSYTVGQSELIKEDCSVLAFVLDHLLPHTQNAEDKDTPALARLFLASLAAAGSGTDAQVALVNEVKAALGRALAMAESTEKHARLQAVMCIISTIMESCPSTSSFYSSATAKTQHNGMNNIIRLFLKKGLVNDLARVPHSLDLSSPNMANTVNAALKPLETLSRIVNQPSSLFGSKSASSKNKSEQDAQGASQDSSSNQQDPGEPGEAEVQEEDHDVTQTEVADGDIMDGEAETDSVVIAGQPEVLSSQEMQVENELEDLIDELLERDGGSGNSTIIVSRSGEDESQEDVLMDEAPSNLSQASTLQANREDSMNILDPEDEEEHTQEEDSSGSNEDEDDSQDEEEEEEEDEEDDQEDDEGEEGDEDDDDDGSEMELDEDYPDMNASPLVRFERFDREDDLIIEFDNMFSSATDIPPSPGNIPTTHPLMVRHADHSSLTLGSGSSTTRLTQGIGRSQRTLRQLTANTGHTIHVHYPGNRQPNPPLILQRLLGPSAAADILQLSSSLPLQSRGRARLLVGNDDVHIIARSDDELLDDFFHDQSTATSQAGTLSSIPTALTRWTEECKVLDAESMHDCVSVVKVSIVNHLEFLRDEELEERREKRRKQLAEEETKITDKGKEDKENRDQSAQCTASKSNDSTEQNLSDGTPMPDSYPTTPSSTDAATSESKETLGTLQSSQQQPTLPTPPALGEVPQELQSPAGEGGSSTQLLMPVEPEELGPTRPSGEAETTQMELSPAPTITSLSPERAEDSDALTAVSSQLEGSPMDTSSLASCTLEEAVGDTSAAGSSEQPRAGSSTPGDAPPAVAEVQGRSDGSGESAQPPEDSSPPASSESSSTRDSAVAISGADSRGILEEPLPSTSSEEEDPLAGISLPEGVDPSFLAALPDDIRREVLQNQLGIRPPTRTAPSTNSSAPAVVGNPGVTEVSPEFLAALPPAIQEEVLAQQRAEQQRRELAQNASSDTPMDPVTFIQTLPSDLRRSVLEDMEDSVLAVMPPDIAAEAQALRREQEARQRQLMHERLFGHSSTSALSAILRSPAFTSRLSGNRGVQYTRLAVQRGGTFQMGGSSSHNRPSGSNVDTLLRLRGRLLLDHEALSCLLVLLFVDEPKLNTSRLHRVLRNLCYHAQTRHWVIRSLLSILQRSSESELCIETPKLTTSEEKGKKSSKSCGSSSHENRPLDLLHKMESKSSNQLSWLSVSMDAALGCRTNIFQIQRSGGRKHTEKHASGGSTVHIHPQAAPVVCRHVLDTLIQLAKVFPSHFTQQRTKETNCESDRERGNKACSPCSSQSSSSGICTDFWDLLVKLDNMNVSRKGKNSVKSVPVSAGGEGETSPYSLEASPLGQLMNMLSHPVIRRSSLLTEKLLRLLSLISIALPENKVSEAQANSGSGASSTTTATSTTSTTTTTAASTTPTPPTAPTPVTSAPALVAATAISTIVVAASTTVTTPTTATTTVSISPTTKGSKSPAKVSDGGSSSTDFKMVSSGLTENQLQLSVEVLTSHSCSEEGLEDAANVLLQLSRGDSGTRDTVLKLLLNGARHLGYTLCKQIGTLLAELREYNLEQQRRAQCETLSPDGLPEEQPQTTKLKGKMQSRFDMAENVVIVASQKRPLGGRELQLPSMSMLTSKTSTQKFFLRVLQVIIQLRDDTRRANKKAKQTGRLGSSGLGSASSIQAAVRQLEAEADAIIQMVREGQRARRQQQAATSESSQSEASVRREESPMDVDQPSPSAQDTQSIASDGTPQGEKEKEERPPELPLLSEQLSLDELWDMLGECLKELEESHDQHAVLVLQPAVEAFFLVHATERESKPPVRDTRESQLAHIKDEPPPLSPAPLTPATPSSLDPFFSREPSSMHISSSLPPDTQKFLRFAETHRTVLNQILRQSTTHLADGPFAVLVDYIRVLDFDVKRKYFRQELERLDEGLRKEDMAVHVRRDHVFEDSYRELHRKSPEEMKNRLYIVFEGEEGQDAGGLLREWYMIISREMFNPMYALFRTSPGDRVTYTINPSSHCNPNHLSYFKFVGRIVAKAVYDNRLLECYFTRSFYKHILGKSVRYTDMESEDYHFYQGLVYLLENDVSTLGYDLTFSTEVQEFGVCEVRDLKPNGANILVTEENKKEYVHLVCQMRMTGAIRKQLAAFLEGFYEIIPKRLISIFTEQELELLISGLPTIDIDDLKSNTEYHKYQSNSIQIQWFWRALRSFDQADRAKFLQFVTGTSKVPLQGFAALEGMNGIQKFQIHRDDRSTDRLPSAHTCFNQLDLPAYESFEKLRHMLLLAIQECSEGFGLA

Key:
Assay in all cases: log2 fold change, soluble protein after heating vs DMSO (PISA); higher = thermal stabilisation; K562 cells, 10 uM, 30 min; active = over 0.2 and 3.5 SD of the protein, either way, in both replicates (recomputed)
erlotinib = compound: C#Cc1cccc(Nc2ncnc3cc(OCCOC)c(OCCOC)cc23)c1 [erlotinib]
Summary of the method: (§1)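 Thermal stability values are relative to control samples and come from duplicates. They are expressed as log2 fold changes. For measurement, K562 cells (2×10^6 cells/mL) received 10 μM compound for 30 min, and aliquots were heated for 3 min over 48°C-58°C, pooled, and extracted at 4°C in PBS with 0.5% NP-40. Soluble protein, the supernatant after 21,000xg for 90 min, was quantified by TMTpro 16plex LC-MS/MS with equalised channel sums.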

[1] = compound: C/C(=N\NC(=O)C1=CC(=CC=C1)S(=O)(=O)N2CCOCC2)/C3=C(C=CC(=C3)Cl)O
Summary of the method: as §1

[2] = compound: C1=CC(=C(C=C1Cl)C2=NC3=NC=CN=C3C(=N2)NC4=CC=NC=C4)F
Summary of the method: as §1

[3] = compound: C1=CC(=CC=C1C2=NC3=C(N2)C=C(C=C3)C(=O)N)OC4=CC=C(C=C4)Cl
Summary of the method: as §1

[4] = compound: C1=CC2=C(C=CC(=C2)/C=C\3/C(=O)NC(=NCC4=CC=CS4)S3)N=C1
Summary of the method: as §1

[5] = compound: C1=CC2=NC=CN=C2C=C1/C=C/3\C(=O)NC(=O)S3
Summary of the method: as §1

[6] = compound: C1=CC=C(C=C1)C2=NC(=C(N2)C3=CC=NC=C3)C4=CC(=C(C=C4)Cl)O
Summary of the method: as §1

[7] = compound: C1=CC=C2C(=C1)C3=NNC4=CC=CC(=C43)C2=O
Summary of the method: as §1

[8] = compound: C1CCN(C1)C(=O)NC2=CC=CC(=C2)NC3=NC=C(C(=N3)NCCC4=CN=CN4)Br
Summary of the method: as §1

[9] = compound: C1CN(CCC1(CC2=CC=C(C=C2)Cl)N)C3=NC=NC4=C3C=CN4
Summary of the method: as §1

IRAK-1-4 Inhibitor I = compound: C1COCCN1CCN2C3=CC=CC=C3N=C2NC(=O)C4=CC(=CC=C4)[N+](=O)[O-] [IRAK-1-4 Inhibitor I]
Summary of the method: as §1

ibrutinib = compound: C=CC(=O)N1CCC[C@@H](n2nc(-c3ccc(Oc4ccccc4)cc3)c3c(N)ncnc32)C1 [ibrutinib]
Summary of the method: as §1

[10] = compound: CC(=O)c1cnc2ccc(-c3cc(Cl)c(O)c(Cl)c3)nc2c1N[C@H]1CC[C@H](CN(C)C)CC1
Summary of the method: as §1

ralimetinib = compound: CC(C)(C)Cn1c(N)nc2ccc(-c3[nH]c(C(C)(C)C)nc3-c3ccc(F)cc3)nc21 [ralimetinib]
Summary of the method: as §1

[11] = compound: CC(C)(O)CC(=O)NCCn1ccc2ncnc(Nc3ccc(Oc4cccc(C(F)(F)F)c4)c(Cl)c3)c21
Summary of the method: as §1

[12] = compound: CC(C)C1=C2N=C(C=C(N2N=C1)NCC3=CC=CC=C3)NCCCCCCN
Summary of the method: as §1

[13] = compound: CC(C)C[C@@H](C=O)NC(=O)[C@H](CC(C)C)NC(=O)[C@H](CC(C)C)NC(=O)OCc1ccccc1
Summary of the method: as §1

pinometostat = compound: CC(C)N(C[C@H]1O[C@@H](n2cnc3c(N)ncnc32)[C@H](O)[C@@H]1O)[C@H]1C[C@@H](CCc2nc3cc(C(C)(C)C)ccc3[nH]2)C1 [pinometostat]
Summary of the method: as §1

[14] = compound: CC1=C(C(CC(=O)N1)C2=CC=C(C=C2)C(F)(F)F)C(=O)NC3=C(C=C4C(=C3)C=NN4)F
Summary of the method: as §1

[15] = compound: CC1=C(C2=C(C=C1)C(=O)C3=CC=CC=C3N2CCCN)C
Summary of the method: as §1

Measured: log2 fold change

HNRNPD isoform 4 (UniProt Q14103)
inactive: erlotinib -0.048 | [1] -0.192 | [2] -0.295 | [3] -0.013 | [4] -0.02 | [5] 0.037 | [6] 0.281 | [7] -0.031 | [8] -0.02 | [9] -0.043 | IRAK-1-4 Inhibitor I -0.138 | ibrutinib -0.022 | [10] 0.121 | ralimetinib 0.207 | [11] 0.127 | [12] 0.045 | [13] -0.19 | pinometostat 0.08 | [14] 0.03 | [15] -0.117

HMGCS1 (UniProt Q01581)
inactive: erlotinib 0.009 | [1] 0.002 | [2] 0.059 | [3] -0.008 | [4] 0.012 | [5] -0.188 | [6] 0.034 | [7] -0.052 | [8] 0.004 | [9] 0.052 | IRAK-1-4 Inhibitor I 0.039 | ibrutinib 0.007 | [10] -0.038 | ralimetinib -0.039 | [11] -0.005 | [12] 0.007 | [13] -0.005 | pinometostat -0.022 | [14] 0.06 | [15] -0.039

HSP90AB1 (UniProt P08238)
inactive: erlotinib -0.036 | [1] 0.066 | [2] 0.047 | [3] -0.004 | [4] -0.032 | [5] -0.01 | [6] 0.014 | [7] 0.078 | [8] 0.013 | [9] -0.006 | IRAK-1-4 Inhibitor I 0.024 | ibrutinib -0.031 | [10] 0.039 | ralimetinib -0.014 | [11] -0.019 | [12] -0.058 | [13] 0.007 | pinometostat -0.05 | [14] -0.021 | [15] -0.015

HSPA1A (UniProt P0DMV8)
inactive: erlotinib -0.025 | [1] -0.071 | [2] -0.007 | [3] 0.009 | [4] -0.096 | [5] 0.001 | [6] -0.002 | [7] 0.026 | [8] 0.041 | [9] 0.011 | IRAK-1-4 Inhibitor I 0.06 | ibrutinib 0.006 | [10] 0 | ralimetinib 0.054 | [11] 0.068 | [12] 0.063 | [13] -0.029 | pinometostat -0.024 | [14] 0.026 | [15] -0.018

HTRA2 (UniProt O43464)
inactive: erlotinib 0.078 | [1] -0.006 | [2] -0.018 | [3] 0 | [4] 0.03 | [5] 0.044 | [6] -0.018 | [7] 0.013 | [8] -0.008 | [9] 0.03 | IRAK-1-4 Inhibitor I -0.004 | ibrutinib 0.019 | [10] 0.034 | ralimetinib -0.025 | [11] -0.034 | [12] 0.041 | [13] 0.037 | pinometostat -0.039 | [14] 0.041 | [15] -0.002

HINT3 (UniProt Q9NQE9)
inactive: erlotinib 0.125 | [1] 0.009 | [2] 0.028 | [3] -0.023 | [4] -0.04 | [5] 0.038 | [6] -0.032 | [7] 0.011 | [8] -0.029 | [9] 0.012 | IRAK-1-4 Inhibitor I 0.071 | ibrutinib 0.002 | [10] -0.023 | ralimetinib -0.102 | [11] 0.013 | [12] 0.017 | [13] 0.021 | pinometostat -0.003 | [14] -0.03 | [15] 0.005

Taken from the results shown (two entries):
HTRA2 (UniProt O43464)
inactive: erlotinib 0.078 | [1] -0.006 | [2] -0.018 | [3] 0 | [4] 0.03 | [5] 0.044 | [6] -0.018 | [7] 0.013 | [8] -0.008 | [9] 0.03 | IRAK-1-4 Inhibitor I -0.004 | ibrutinib 0.019 | [10] 0.034 | ralimetinib -0.025 | [11] -0.034 | [12] 0.041 | [13] 0.037 | pinometostat -0.039 | [14] 0.041 | [15] -0.002

HINT3 (UniProt Q9NQE9)
inactive: erlotinib 0.125 | [1] 0.009 | [2] 0.028 | [3] -0.023 | [4] -0.04 | [5] 0.038 | [6] -0.032 | [7] 0.011 | [8] -0.029 | [9] 0.012 | IRAK-1-4 Inhibitor I 0.071 | ibrutinib 0.002 | [10] -0.023 | ralimetinib -0.102 | [11] 0.013 | [12] 0.017 | [13] 0.021 | pinometostat -0.003 | [14] -0.03 | [15] 0.005

Carrying on:

HGS (UniProt O14964)
inactive: erlotinib -0.031 | [1] 0.041 | [2] 0.046 | [3] -0.014 | [4] 0.014 | [5] 0.02 | [6] 0.002 | [7] -0.009 | [8] 0.01 | [9] -0.015 | IRAK-1-4 Inhibitor I 0.002 | ibrutinib -0.011 | [10] -0.014 | ralimetinib -0.002 | [11] -0.05 | [12] -0.078 | [13] -0.015 | pinometostat -0.022 | [14] -0.001 | [15] 0.017

HSP90AA1 isoform 2 (UniProt P07900)
inactive: erlotinib -0.013 | [1] 0.037 | [2] 0.044 | [3] -0.002 | [4] -0.031 | [5] 0.004 | [6] 0.008 | [7] 0.063 | [8] 0.026 | [9] 0.007 | IRAK-1-4 Inhibitor I 0.049 | ibrutinib -0.05 | [10] 0.034 | ralimetinib 0.034 | [11] -0.049 | [12] -0.041 | [13] -0.006 | pinometostat -0.039 | [14] -0.036 | [15] -0.029

HYOU1 (UniProt Q9Y4L1)
inactive: erlotinib -0.048 | [1] -0.062 | [2] -0.013 | [3] -0.03 | [4] -0.07 | [5] 0.014 | [6] 0.008 | [7] 0.061 | [8] -0.018 | [9] -0.042 | IRAK-1-4 Inhibitor I -0.04 | ibrutinib -0.033 | [10] 0 | ralimetinib 0.037 | [11] 0.015 | [12] -0.023 | [13] -0.011 | pinometostat 0.017 | [14] 0.028 | [15] -0.017

HSP90B1 (UniProt P14625)
inactive: erlotinib -0.026 | [1] -0.025 | [2] 0.018 | [3] -0.041 | [4] -0.013 | [5] -0.006 | [6] -0.012 | [7] 0.018 | [8] 0.024 | [9] 0.02 | IRAK-1-4 Inhibitor I 0.033 | ibrutinib -0.01 | [10] -0.023 | ralimetinib -0.037 | [11] -0.013 | [12] 0.005 | [13] -0.009 | pinometostat -0.022 | [14] 0.019 | [15] -0.032

IARS (UniProt P41252)
inactive: erlotinib -0.013 | [1] -0.054 | [2] -0.445 | [3] 0 | [4] 0.055 | [5] 0.009 | [6] -0.047 | [7] 0.008 | [8] 0.057 | [9] -0.167 | IRAK-1-4 Inhibitor I -0.126 | ibrutinib -0.02 | [10] 0.126 | ralimetinib 0.236 | [11] 0.047 | [12] -0.267 | [13] 0.16 | pinometostat 0.504 | [14] 0.004 | [15] -0.012

HSPA6 (UniProt P17066)
inactive: erlotinib -0.022 | [1] -0.051 | [2] 0.031 | [3] 0.008 | [4] -0.005 | [5] 0.052 | [6] -0.008 | [7] -0.006 | [8] 0.019 | [9] -0.052 | IRAK-1-4 Inhibitor I 0.005 | ibrutinib 0.035 | [10] 0.033 | ralimetinib 0 | [11] 0.034 | [12] 0.036 | [13] -0.056 | pinometostat -0.046 | [14] 0.04 | [15] -0.014

HMGN4 (UniProt O00479)
inactive: erlotinib -0.159 | [1] 0.178 | [2] 0.421 | [3] 0.11 | [4] -0.35 | [5] -0.066 | [6] 0.252 | [7] 0.086 | [8] 0.042 | [9] -0.083 | IRAK-1-4 Inhibitor I -0.237 | ibrutinib 0.068 | [10] 0.32 | ralimetinib 0.346 | [11] -0.253 | [12] 0.082 | [13] -0.527 | pinometostat 0.15 | [14] -0.124 | [15] 0.337

HUWE1 (UniProt Q7Z6Z7)
inactive: erlotinib -0.025 | [1] 0.057 | [2] 0.003 | [3] 0.024 | [4] 0.007 | [5] 0.006 | [6] 0.01 | [7] 0.013 | [8] -0.002 | [9] -0.009 | IRAK-1-4 Inhibitor I -0.02 | ibrutinib -0.014 | [10] 0.032 | ralimetinib 0.014 | [11] -0.078 | [12] -0.052 | [13] 0.029 | pinometostat 0.022 | [14] 0.004 | [15] -0.012

HSD17B11 (UniProt Q8NBQ5)
inactive: erlotinib -0.01 | [1] 0.076 | [2] 0.089 | [3] 0.084 | [4] 0.008 | [5] -0.029 | [6] -0.006 | [7] 0.025 | [8] -0.026 | [9] 0.082 | IRAK-1-4 Inhibitor I 0.001 | ibrutinib -0.019 | [10] 0.001 | ralimetinib -0.097 | [11] 0.048 | [12] 0.101 | [13] -0.055 | pinometostat -0.056 | [14] -0.018 | [15] 0.005

HIF1AN (UniProt Q9NWT6)
inactive: erlotinib -0.022 | [1] -0.177 | [2] 0.092 | [3] 0.003 | [4] -0.117 | [5] -0.102 | [6] 0.12 | [7] 0.036 | [8] -0.043 | [9] 0.069 | IRAK-1-4 Inhibitor I 0.019 | ibrutinib 0.067 | [10] 0.102 | ralimetinib 0.189 | [11] 0.109 | [12] 0.072 | [13] -0.055 | pinometostat 0.015 | [14] -0.035 | [15] -0.168
